The subject of this data set is source genes of the peptides. In words: Expression of source genes in tumor entities, TCGA Research Network data (target coverage). The arrangement: species or system human. Conditions: over-expressed = more than 2-fold above highest 75% percentile of normal organs.

Expression values are those of the mRNA of the gene that encodes the peptide; a gene is named only where it was looked up.

On to “92: peptide found in IGFBP3 (gene looked up) (LLRGPPVARA; listed as Homo sapiens) [compound 92]”, for which the “Target coverage, over-expression category of source gene, CHOL (N = 36)” value (Cholangiocarcinoma) is on record as “C (>=5% of tumors above the cutoff, but <20%)”. The “Target coverage, over-expression category of source gene, KICH (N = 66)” value (Kidney chromophobe) was “C (>=5% of tumors above the cutoff, but <20%)”. The “Target coverage, over-expression category of source gene, LGG (N = 534)” value (Lower grade glioma) is “C (>=5% of tumors above the cutoff, but <20%)”.

These data come from patent publication US10568950B1, “Peptides, combination of peptides and scaffolds for use in immunotherapeutic treatment of various cancers” (Immatics Biotechnologies GmbH, priority 2015, dated 2020).
